Data taken from article PMC5996148.
Where “and” joins values, the source holds several entries; their conditions need not be identical. Equal values may be shown once. The list shows a part of the results.

What was measured:
Experiment in all cases: protein microarray (ProtoArray v5.0), streptavidin-Alexa Fluor 647
Settings in all cases: 3'-biotin; 20 mM Tris (pH 7.5), 5 mM MgCl2, 100 mM KCl, 0.1% Tween-20, A/T-rich and random oligonucleotide blockers; temperature not stated; high values mean tight binding
[1] = system: Glutamate decarboxylase 1 (human)
[2] = system: Glutamate decarboxylase 2 (human)
[3] = system: Glutaminyl-tRNA synthetase (human)
[4] = system: Glutathione S-transferase A2 (human)
[5] = system: Glutathione S-transferase A4 (human)
[6] = system: Glutathione S-transferase Mu 5 (human)
[7] = system: Glycolipid transfer protein (human)
Glycoprotein Xg (human) = system: Glycoprotein Xg (human)
[8] = system: Glycosyltransferase 1 domain-containing protein 1 (human)
[9] = system: Golgi SNAP receptor complex member 1 (human)
[10] = system: Granulocyte colony-stimulating factor (human)
Gremlin-1 (human) = system: Gremlin-1 (human)
[11] = system: Guanine nucleotide exchange factor for Rab3A (human)
[12] = system: Guanine nucleotide-binding protein subunit alpha-11 (human)
[13] = system: Guanylate cyclase activator 2B (human)
HAAO (human) = system: HAAO (human)
HAS3 (human) = system: HAS3 (human)
HAVCR2 (human) = system: HAVCR2 (human)
HAX1 (human) = system: HAX1 (human)
HBD (human) = system: HBD (human)

GGGAGGCTGAGGCAGG [G4-1 biotinylated (PQS2)]
binding signal [1]: -0.336 z-score | binding signal [2]: -0.358 z-score | binding signal [3]: -0.352 z-score and -0.37 z-score | binding signal [4]: -0.32 z-score | binding signal [5]: -0.358 z-score | binding signal [6]: -0.338 z-score | binding signal [7]: -0.374 z-score | binding signal (Glycoprotein Xg (human)): -0.278 z-score | binding signal [8]: -0.323 z-score | binding signal [9]: -0.318 z-score | binding signal [10]: -0.275 z-score | binding signal (Gremlin-1 (human)): -0.319 z-score | binding signal [11]: -0.333 z-score | binding signal [12]: -0.337 z-score | binding signal [13]: -0.328 z-score | binding signal (HAAO (human)): -0.358 z-score | binding signal (HAS3 (human)): -0.323 z-score | binding signal (HAVCR2 (human)): -0.358 z-score | binding signal (HAX1 (human)): -0.321 z-score and -0.346 z-score | binding signal (HBD (human)): -0.319 z-score
